Assay results reported in the supplement of paper PMC10849652.
The other results are listed elsewhere or left out.

Chains of the proteins cited; added tags and fusions are not shown. Lines headed by an entry give the natural chain unless they say otherwise; changes in a name come on top.
UniProt Q8IZP0: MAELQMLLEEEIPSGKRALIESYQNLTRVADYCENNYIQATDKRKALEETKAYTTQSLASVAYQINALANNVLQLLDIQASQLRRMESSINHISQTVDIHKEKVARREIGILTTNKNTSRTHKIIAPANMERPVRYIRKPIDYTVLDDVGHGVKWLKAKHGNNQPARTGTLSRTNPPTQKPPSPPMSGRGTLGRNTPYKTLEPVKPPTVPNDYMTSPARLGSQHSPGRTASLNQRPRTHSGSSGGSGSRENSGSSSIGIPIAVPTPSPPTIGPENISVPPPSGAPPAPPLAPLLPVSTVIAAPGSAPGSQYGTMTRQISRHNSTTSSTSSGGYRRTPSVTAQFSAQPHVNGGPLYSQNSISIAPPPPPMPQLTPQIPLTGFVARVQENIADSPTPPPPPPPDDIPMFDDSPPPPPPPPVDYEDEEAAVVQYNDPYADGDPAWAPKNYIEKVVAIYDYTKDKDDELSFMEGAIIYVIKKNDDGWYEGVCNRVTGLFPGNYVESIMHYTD
UniProt Q6DHV7: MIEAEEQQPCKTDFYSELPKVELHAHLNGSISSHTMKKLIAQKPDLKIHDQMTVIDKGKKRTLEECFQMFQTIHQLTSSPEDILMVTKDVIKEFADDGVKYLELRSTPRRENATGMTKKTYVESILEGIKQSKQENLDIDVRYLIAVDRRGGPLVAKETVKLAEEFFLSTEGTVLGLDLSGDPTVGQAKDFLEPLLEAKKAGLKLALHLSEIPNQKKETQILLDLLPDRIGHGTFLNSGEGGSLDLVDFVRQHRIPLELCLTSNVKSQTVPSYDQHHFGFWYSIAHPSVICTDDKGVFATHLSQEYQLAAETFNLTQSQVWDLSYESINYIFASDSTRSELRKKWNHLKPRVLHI
UniProt P16219: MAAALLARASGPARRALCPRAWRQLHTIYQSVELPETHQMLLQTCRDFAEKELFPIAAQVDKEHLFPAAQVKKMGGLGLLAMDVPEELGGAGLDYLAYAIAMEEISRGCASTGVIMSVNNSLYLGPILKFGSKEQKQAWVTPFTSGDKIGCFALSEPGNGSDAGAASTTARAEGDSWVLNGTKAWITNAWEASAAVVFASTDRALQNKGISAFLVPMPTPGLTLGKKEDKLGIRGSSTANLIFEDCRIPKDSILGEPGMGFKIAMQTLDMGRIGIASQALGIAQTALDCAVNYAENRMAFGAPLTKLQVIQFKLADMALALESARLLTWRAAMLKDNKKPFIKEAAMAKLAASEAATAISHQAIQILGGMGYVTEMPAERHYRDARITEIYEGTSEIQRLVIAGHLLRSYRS
UniProt P12814, whole entry, looked up: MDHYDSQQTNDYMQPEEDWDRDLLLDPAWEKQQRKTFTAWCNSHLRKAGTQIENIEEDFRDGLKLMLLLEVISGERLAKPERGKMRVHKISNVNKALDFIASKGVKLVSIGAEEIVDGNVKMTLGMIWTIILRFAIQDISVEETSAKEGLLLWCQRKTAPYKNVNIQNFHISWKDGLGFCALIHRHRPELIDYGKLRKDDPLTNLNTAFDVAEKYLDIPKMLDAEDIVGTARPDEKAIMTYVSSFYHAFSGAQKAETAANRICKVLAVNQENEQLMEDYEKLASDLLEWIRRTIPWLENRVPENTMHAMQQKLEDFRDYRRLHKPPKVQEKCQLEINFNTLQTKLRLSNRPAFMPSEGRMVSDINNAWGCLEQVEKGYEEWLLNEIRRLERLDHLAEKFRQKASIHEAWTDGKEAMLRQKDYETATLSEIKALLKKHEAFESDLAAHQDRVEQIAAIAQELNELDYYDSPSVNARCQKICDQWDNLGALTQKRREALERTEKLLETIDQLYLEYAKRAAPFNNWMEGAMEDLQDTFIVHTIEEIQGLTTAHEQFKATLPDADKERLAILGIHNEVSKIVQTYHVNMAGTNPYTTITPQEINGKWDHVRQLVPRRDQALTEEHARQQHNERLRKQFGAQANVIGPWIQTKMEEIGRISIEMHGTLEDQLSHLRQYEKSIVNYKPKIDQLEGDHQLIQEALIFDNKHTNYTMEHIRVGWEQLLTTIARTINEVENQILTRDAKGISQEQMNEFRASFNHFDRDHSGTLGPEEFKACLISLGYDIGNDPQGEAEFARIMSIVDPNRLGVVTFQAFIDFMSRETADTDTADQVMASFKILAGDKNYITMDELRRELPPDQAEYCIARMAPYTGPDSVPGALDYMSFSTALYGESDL
UniProt Q6UWZ7: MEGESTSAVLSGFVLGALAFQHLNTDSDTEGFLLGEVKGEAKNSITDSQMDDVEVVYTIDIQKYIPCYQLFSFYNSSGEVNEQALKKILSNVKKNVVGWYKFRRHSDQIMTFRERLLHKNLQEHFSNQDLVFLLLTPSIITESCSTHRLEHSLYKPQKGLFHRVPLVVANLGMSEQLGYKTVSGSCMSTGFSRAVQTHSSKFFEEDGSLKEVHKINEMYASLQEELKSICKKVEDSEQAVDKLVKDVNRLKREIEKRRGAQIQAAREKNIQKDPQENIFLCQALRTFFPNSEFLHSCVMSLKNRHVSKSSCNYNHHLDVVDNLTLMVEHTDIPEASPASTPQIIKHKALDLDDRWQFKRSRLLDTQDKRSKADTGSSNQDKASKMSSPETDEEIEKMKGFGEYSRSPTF
UniProt Q7L211: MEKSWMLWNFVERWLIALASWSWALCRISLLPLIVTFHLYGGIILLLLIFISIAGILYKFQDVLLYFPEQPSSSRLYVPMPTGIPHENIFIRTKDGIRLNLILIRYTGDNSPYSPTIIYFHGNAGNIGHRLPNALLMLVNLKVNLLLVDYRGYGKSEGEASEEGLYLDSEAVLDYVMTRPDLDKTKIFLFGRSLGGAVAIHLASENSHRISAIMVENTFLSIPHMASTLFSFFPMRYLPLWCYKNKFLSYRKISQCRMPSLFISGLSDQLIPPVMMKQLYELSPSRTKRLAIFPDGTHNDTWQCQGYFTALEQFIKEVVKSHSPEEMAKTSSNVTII
UniProt Q9H3P7: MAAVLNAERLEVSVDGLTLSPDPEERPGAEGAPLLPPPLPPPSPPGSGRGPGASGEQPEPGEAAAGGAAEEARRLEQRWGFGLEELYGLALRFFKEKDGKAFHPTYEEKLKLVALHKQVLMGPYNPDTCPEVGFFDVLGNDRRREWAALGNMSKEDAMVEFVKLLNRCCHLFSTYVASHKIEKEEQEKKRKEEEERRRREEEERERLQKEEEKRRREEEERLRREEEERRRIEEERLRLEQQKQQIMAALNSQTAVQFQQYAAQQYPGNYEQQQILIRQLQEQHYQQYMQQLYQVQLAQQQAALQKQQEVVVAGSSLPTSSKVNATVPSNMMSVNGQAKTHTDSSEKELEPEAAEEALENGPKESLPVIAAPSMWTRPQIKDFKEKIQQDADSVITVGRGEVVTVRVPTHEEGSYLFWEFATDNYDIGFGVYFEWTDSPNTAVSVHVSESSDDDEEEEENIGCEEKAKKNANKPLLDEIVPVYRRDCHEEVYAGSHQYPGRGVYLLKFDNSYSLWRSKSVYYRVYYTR
UniProt O95342, whole entry, looked up: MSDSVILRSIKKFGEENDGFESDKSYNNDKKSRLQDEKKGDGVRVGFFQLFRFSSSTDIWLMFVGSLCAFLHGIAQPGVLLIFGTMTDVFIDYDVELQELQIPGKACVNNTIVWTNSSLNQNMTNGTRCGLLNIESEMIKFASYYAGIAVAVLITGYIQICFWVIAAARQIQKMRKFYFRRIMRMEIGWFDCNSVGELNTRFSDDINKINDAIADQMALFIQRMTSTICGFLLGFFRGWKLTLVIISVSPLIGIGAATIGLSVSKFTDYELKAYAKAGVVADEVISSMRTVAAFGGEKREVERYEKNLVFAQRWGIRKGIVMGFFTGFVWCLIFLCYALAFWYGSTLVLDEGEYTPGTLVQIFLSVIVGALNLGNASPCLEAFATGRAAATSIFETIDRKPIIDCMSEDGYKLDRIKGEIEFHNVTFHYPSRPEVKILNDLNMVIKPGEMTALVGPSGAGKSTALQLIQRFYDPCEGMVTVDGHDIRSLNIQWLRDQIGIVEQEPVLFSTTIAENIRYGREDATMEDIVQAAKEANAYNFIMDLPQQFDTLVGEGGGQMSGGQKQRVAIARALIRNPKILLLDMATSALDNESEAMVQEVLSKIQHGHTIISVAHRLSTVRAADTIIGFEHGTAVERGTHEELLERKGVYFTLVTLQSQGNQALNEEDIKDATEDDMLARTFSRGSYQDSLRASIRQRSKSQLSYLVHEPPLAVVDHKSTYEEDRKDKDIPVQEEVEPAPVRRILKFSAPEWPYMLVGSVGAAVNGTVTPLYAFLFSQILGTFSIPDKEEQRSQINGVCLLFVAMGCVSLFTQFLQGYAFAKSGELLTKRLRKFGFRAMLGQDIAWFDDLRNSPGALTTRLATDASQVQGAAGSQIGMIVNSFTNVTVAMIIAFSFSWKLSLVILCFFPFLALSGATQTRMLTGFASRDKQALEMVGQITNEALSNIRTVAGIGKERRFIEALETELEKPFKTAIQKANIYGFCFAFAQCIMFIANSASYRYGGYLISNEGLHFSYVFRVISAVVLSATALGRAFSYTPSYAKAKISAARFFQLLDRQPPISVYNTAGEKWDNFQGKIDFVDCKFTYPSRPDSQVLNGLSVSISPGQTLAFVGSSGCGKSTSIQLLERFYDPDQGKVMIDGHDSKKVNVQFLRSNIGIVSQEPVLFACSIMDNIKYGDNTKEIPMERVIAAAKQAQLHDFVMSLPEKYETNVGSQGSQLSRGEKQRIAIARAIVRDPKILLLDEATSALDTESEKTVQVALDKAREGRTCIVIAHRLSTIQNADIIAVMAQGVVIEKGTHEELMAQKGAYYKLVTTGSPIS
UniProt Q96EY9: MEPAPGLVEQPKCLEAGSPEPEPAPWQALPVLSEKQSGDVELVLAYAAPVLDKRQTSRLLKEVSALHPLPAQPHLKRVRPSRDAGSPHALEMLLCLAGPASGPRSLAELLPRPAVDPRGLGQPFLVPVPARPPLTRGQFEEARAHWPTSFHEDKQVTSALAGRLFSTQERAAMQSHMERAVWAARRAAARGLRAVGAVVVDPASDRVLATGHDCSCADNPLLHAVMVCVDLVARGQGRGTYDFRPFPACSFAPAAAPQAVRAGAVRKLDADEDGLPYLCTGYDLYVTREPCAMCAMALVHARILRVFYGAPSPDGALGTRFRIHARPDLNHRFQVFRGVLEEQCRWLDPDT
UniProt Q9UNA0: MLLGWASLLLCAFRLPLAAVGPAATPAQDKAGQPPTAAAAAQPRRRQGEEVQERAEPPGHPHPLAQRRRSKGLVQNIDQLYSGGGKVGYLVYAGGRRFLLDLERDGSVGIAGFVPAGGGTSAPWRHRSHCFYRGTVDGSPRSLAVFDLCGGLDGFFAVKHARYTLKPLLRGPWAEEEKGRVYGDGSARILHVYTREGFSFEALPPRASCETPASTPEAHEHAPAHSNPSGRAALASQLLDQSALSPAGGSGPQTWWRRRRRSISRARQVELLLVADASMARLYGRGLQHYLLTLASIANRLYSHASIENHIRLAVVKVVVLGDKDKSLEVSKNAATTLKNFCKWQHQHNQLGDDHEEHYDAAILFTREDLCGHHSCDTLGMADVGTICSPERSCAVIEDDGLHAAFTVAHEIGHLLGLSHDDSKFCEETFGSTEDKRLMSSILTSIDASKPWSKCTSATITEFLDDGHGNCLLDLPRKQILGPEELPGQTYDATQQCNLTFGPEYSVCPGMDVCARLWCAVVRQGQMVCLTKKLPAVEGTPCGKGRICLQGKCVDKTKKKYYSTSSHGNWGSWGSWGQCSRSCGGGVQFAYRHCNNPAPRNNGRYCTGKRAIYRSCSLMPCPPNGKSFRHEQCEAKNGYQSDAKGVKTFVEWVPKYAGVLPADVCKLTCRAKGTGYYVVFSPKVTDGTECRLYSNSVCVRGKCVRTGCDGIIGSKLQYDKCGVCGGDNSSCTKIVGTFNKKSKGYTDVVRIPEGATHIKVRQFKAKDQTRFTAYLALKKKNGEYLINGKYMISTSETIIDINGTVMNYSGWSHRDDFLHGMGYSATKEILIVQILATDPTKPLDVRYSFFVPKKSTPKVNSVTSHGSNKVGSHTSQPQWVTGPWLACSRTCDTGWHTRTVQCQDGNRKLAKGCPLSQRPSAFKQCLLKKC
UniProt Q9P1F3: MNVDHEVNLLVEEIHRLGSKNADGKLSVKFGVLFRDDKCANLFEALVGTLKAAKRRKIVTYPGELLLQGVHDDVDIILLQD
UniProt Q562R1, whole entry, looked up: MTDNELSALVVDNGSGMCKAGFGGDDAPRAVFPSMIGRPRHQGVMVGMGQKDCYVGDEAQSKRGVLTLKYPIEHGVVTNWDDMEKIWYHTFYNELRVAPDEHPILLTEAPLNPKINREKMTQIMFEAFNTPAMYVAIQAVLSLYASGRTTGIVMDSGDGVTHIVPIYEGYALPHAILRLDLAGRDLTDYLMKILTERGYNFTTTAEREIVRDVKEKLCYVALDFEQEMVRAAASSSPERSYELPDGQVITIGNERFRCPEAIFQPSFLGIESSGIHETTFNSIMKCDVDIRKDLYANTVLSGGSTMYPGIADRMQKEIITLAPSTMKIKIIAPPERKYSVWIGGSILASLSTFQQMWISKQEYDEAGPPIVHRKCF

Assays:
Experiment in all cases: log2 fold change, soluble protein after heating vs DMSO (PISA); higher = thermal stabilisation; K562 cells, 10 uM, 30 min; active = over 0.2 and 3.5 SD of the protein, either way, in both replicates (recomputed)
[1] = compound: CC1=C(C=C(C=C1)NC(=O)C2=CC(=CC=C2)C(C)(C)C#N)NC3=CC4=C(C=C3)N=CN(C4=O)C
Method in brief: (§1)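 K562 cells at 2×10^6 cells/mL were treated for 30 min with 10 μM compound, and aliquots were heated for 3 min over 48°C-58°C before pooling. Extraction used PBS with 0.5% NP-40 at 4°C, and soluble protein was the supernatant after 21,000xg for 90 min, measured by TMTpro 16plex LC-MS/MS with channel sums equalised. Thermal stability values, relative to control samples and from duplicates, are log2 fold changes.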

[2] = compound: CC1=C(C=C(C=C1)NC(=O)C2=CC(=CC=C2)N(C)C)NC(=O)C3=CC=C(C=C3)O
Method in brief: as §1

[3] = compound: CC1=CC=C(C=C1)SC2=C3C=C(SC3=CN=C2)C(=O)N
Method in brief: as §1

[4] = compound: CC1=NC(=CC=C1)C2=C(N=C(N2)C(C)(C)C)C3=CC4=NC=CN=C4C=C3
Method in brief: as §1

Nexturastat A = compound: CCCCN(Cc1ccc(C(=O)NO)cc1)C(=O)Nc1ccccc1 [Nexturastat A]
Method in brief: as §1

vemurafenib = compound: CCCS(=O)(=O)Nc1ccc(F)c(C(=O)c2c[nH]c3ncc(-c4ccc(Cl)cc4)cc23)c1F [vemurafenib]
Method in brief: as §1

[5] = compound: CCCS(=O)(=O)Nc1ccc(F)c(C(=O)c2c[nH]c3ncc(Cl)cc23)c1F
Method in brief: as §1

[6] = compound: CCCc1cc(C)[nH]c(=O)c1CNC(=O)c1cc(-c2ccnc(N3CCN(C)CC3)c2)cc2c1cnn2C(C)C
Method in brief: as §1

givinostat = compound: CCN(CC)Cc1ccc2cc(COC(=O)Nc3ccc(C(=O)NO)cc3)ccc2c1 [givinostat]
Method in brief: as §1

barasertib = compound: CCN(CCCOc1ccc2c(Nc3cc(CC(=O)Nc4cccc(F)c4)[nH]n3)ncnc2c1)CCOP(=O)(O)O [barasertib]
Method in brief: as §1

Target	log2 fold change [1]	log2 fold change [2]	log2 fold change [3]	log2 fold change [4]	log2 fold change (Nexturastat A)	log2 fold change (vemurafenib)	log2 fold change [5]	log2 fold change [6]	log2 fold change (givinostat)	log2 fold change (barasertib)
ABLIM1 (UniProt O14639)	inactive: -0.082	inactive: 0.013	inactive: -0.114	inactive: 0.04	inactive: 0.004	inactive: -0.064	inactive: 0.073	inactive: -0.002	inactive: 0.122	inactive: 0.267
ABI1 (UniProt Q8IZP0)	inactive: -0.012	inactive: -0.003	inactive: -0.051	inactive: 0.015	inactive: -0.07	inactive: -0.005	inactive: 0.007	inactive: 0.128	inactive: 0.057	inactive: -0.02
ACAD8 (UniProt Q9UKU7)	inactive: -0.008	inactive: -0.06	inactive: -0.054	inactive: -0.014	inactive: -0.037	inactive: -0.01	inactive: 0.005	inactive: -0.026	inactive: -0.028	inactive: -0.013
ACTA1 (UniProt P68133)	inactive: -0.021	inactive: 0.017	inactive: -0.009	inactive: 0.01	inactive: -0.049	inactive: 0.016	inactive: -0.018	inactive: -0.024	inactive: -0.014	inactive: 0.009
ACTB, A0A2R8Y793	inactive: 0.008	inactive: -0.001	inactive: 0.024	inactive: 0.022	inactive: -0.01	inactive: 0.011	inactive: 0.012	inactive: -0.035	inactive: -0.021	inactive: -0.013
ADAL (UniProt Q6DHV7)	inactive: 0.022	inactive: -0.016	inactive: -0.001	inactive: 0.018	inactive: -0.103	inactive: 0.003	inactive: 0.001	inactive: -0.007	inactive: -0.045	inactive: 0.021
AARSD1 isoform 3 (UniProt Q9BTE6)	inactive: 0.016	inactive: -0.04	inactive: -0.003	inactive: 0.034	inactive: -0.077	inactive: 0.003	inactive: 0.122	inactive: 0.03	active: -0.273	inactive: 0.032
ACADS (UniProt P16219)	inactive: 0.005	inactive: -0.022	inactive: -0.027	inactive: -0.013	inactive: -0.054	inactive: 0.153	inactive: -0.007	inactive: -0.047	inactive: -0.016	inactive: -0.01
ACTN1 (UniProt P12814)	inactive: -0.005	inactive: 0.009	inactive: 0.011	inactive: 0.046	inactive: -0.005	inactive: -0.001	inactive: 0.009	inactive: -0.042	inactive: 0.009	inactive: -0.014
ABCF3 (UniProt Q9NUQ8)	inactive: -0.058	inactive: -0.015	inactive: -0.021	inactive: 0.018	inactive: 0.375	inactive: -0.06	inactive: -0.015	inactive: 0.152	inactive: 0.179	inactive: 0.014
ABCE1 (UniProt P61221)	inactive: 0.043	inactive: 0.014	inactive: 0.009	inactive: 0.076	inactive: -0.103	inactive: -0.031	inactive: -0.017	inactive: -0.045	inactive: -0.037	inactive: -0.013
ADAM10 (UniProt O14672)	inactive: 0.003	inactive: -0.005	inactive: -0.009	inactive: -0.015	inactive: 0.024	inactive: -0.029	inactive: -0.036	inactive: -0.067	inactive: 0.02	inactive: -0.043
ACIN1 (UniProt Q9UKV3)	inactive: -0.028	inactive: 0.039	inactive: -0.015	inactive: -0.013	inactive: 0.044	inactive: 0	inactive: 0.014	inactive: 0.023	inactive: 0.105	inactive: -0.008
ABRAXAS1 (UniProt Q6UWZ7)	inactive: -0.156	inactive: 0.162	inactive: -0.137	inactive: -0.122	inactive: -0.021	inactive: -0.056	inactive: -0.089	inactive: 0.013	inactive: -0.052	inactive: 0.026
ABHD10 (UniProt Q9NUJ1)	inactive: -0.011	inactive: 0.024	inactive: 0.02	inactive: 0.015	inactive: -0.04	inactive: -0.015	inactive: -0.025	inactive: -0.04	inactive: -0.14	inactive: -0.014
AAGAB (UniProt Q6PD74)	inactive: -0.153	inactive: -0.063	inactive: -0.012	inactive: -0.036	inactive: 0.109	inactive: -0.012	inactive: 0.144	inactive: -0.02	inactive: -0.004	inactive: 0.068
ABCB6 (UniProt Q9NP58)	inactive: 0.085	inactive: -0.084	inactive: 0.019	inactive: 0.019	inactive: 0.001	inactive: 0.073	inactive: -0.022	inactive: -0.041	inactive: -0.002	inactive: 0.008
ABHD13 (UniProt Q7L211)	inactive: 0	inactive: -0.111	inactive: -0.057	inactive: 0.137	inactive: 0.045	inactive: -0.027	inactive: 0.026	inactive: -0.03	inactive: 0.131	inactive: 0.036
ABCC10 (UniProt Q5T3U5)	inactive: -0.026	inactive: 0.083	inactive: 0.034	–	inactive: 0.051	inactive: 0.139	inactive: 0.011	–	inactive: 0.144	inactive: -0.004
ACBD3 (UniProt Q9H3P7)	inactive: -0.022	inactive: -0.072	inactive: 0.06	inactive: -0.016	inactive: -0.022	inactive: 0.023	inactive: 0.037	inactive: 0.042	inactive: 0.035	inactive: 0.029
ABCB11 (UniProt O95342)	inactive: 0.081	inactive: -0.019	inactive: -0.034	–	–	–	inactive: -0.092	inactive: -0.119	–	–
ACAD9 (UniProt Q9H845)	inactive: -0.022	inactive: 0.007	inactive: 0.007	inactive: -0.001	inactive: -0.061	inactive: 0.053	inactive: -0.019	inactive: -0.009	inactive: -0.012	inactive: -0.011
ADAT3 (UniProt Q96EY9)	inactive: -0.157	inactive: -0.018	inactive: 0.017	inactive: -0.003	inactive: -0.037	inactive: -0.075	inactive: -0.066	inactive: 0.043	inactive: 0.06	inactive: 0.027
ADAMTS5 (UniProt Q9UNA0)	inactive: -0.171	inactive: -0.022	–	inactive: -0.164	–	inactive: -0.095	–	inactive: -0.572	inactive: 0.222	inactive: 0.02
ABRACL (UniProt Q9P1F3)	inactive: 0.11	inactive: 0.089	–	inactive: -0.038	–	–	–	inactive: -0.079	–	inactive: 0.08
ACTBL2 (UniProt Q562R1)	inactive: 0.238	inactive: 0.243	inactive: -0.385	–	inactive: -0.049	inactive: 0.139	inactive: -0.41	inactive: 0.073	inactive: -0.342	inactive: 0.161
ABCB7 isoform 2 (UniProt O75027)	inactive: -0.116	inactive: 0.009	inactive: 0.054	inactive: 0.027	inactive: 0.007	inactive: 0.038	inactive: 0.076	inactive: -0.033	inactive: 0.002	inactive: 0.014

Eight neighbouring entries out of the list so far:
Target	log2 fold change [1]	log2 fold change [2]	log2 fold change [3]	log2 fold change [4]	log2 fold change (Nexturastat A)	log2 fold change (vemurafenib)	log2 fold change [5]	log2 fold change [6]	log2 fold change (givinostat)	log2 fold change (barasertib)
ABRAXAS1 (UniProt Q6UWZ7)	inactive: -0.156	inactive: 0.162	inactive: -0.137	inactive: -0.122	inactive: -0.021	inactive: -0.056	inactive: -0.089	inactive: 0.013	inactive: -0.052	inactive: 0.026
ABHD10 (UniProt Q9NUJ1)	inactive: -0.011	inactive: 0.024	inactive: 0.02	inactive: 0.015	inactive: -0.04	inactive: -0.015	inactive: -0.025	inactive: -0.04	inactive: -0.14	inactive: -0.014
AAGAB (UniProt Q6PD74)	inactive: -0.153	inactive: -0.063	inactive: -0.012	inactive: -0.036	inactive: 0.109	inactive: -0.012	inactive: 0.144	inactive: -0.02	inactive: -0.004	inactive: 0.068
ABCB6 (UniProt Q9NP58)	inactive: 0.085	inactive: -0.084	inactive: 0.019	inactive: 0.019	inactive: 0.001	inactive: 0.073	inactive: -0.022	inactive: -0.041	inactive: -0.002	inactive: 0.008
ABHD13 (UniProt Q7L211)	inactive: 0	inactive: -0.111	inactive: -0.057	inactive: 0.137	inactive: 0.045	inactive: -0.027	inactive: 0.026	inactive: -0.03	inactive: 0.131	inactive: 0.036
ABCC10 (UniProt Q5T3U5)	inactive: -0.026	inactive: 0.083	inactive: 0.034	–	inactive: 0.051	inactive: 0.139	inactive: 0.011	–	inactive: 0.144	inactive: -0.004
ACBD3 (UniProt Q9H3P7)	inactive: -0.022	inactive: -0.072	inactive: 0.06	inactive: -0.016	inactive: -0.022	inactive: 0.023	inactive: 0.037	inactive: 0.042	inactive: 0.035	inactive: 0.029
ABCB11 (UniProt O95342)	inactive: 0.081	inactive: -0.019	inactive: -0.034	–	–	–	inactive: -0.092	inactive: -0.119	–	–
